Test results: patent US20170209534A1, “Pseudhymenochirins As Agents For Treatment Of Cancer And Microbial Infections” (priority 2014, published 2017)
No end group written: not given here.

Assays:
Type in all cases: cell-based
Details in all cases: ratio of LC50 for HUVEC cells to LC50 for tumour cells
[1] = test system: human breast adenocarcinoma MDA-MB-231 cells; assay: Viability assay (CellTiter-Glo, ATP), MDA-MB-231
Protocol: (§1) For cytotoxicity assay, the effect of the peptides on three different types of cancer cells were analysed, human non-small cell lung adenocarcinoma A549 cells, human breast adenocarcinoma MDA-MB-231 cells and human colorectal adenocarcinoma HT-29 cells. As control, HUVEC cell line was selected.
(§2) A549 cell line was maintained in RPMI 1640 medium containing 2 mM L-glutamine and supplemented with 10% FCS at 37° C. MDA-MB-231 and HT-29 cell lines were maintained in DMEM medium supplemented with 10% FCS at 37° C. The medium for cancer cells were further supplemented with antibiotics, penicillin 50 U/mL and streptomycin […]. HUVEC cells were maintained in EndoGRO MV-VEGF Complete Media Kit at 37° C.
(§3) The cells from each of the four cell lines were seeded individually in a 96-wells plate at a cell density of 5×10^3 cells/well. […]
(§4) The effect of the peptides on the cell viability was determined by the measurement of the concentration of ATP using CellTitre-Glo Luminescent Cell Viability assay. Luminescent signals were measured using a GLOMAX Luminometer system.
(§5) The LC50 value was calculated for both the peptides for individual cell lines by conducting non-linear regression analysis using commercially available software (SPPS version 17.0; SPS Inc, Chicago, Ill., USA). […]

[2] = test system: human colorectal adenocarcinoma HT-29 cells; assay: Viability assay (CellTiter-Glo, ATP), HT-29
Protocol: as §1, §2, §3, §4, §5

[3] = test system: human non-small cell lung adenocarcinoma A549 cells; assay: Viability assay (CellTiter-Glo, ATP), A549

Sequence	Therapeutic index MDA-231 [1]	Therapeutic index HT-29 [2]	Therapeutic index A549 [3]
GIFPIFAKLLGKVIKVASSLISKGRTE [Pseudhymenochirin-2Pa, Pseudhymenochirin-2 Pa]	11.0	5.9	11.3
IKIPSFFRNILKKVGKEAVSLIAGALKQS [Pseudhymenochirin-1Pb]	0.8	0.6	2.2
